Drawing on patent US20180303952A1, this text covers binding for one molecule.

Sequences of proteins named here, by UniProt entry; tags and fusion partners are left off. A change or cut given only in a name is not applied to a line headed by its entry.
UniProt P35613: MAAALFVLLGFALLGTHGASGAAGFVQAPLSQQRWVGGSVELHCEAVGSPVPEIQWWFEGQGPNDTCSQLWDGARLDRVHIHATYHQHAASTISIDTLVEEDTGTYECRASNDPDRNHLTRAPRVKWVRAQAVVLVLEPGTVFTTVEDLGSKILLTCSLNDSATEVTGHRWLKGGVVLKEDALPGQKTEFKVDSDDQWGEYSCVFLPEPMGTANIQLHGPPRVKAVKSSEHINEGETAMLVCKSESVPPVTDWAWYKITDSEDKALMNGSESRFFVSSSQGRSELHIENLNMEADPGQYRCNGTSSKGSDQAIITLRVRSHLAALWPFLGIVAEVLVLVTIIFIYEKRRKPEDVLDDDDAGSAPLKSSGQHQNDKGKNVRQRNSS

The target in assay [1] is human CD147 on the surface of human cell lines (human) (UniProt P35613). The experiment in a line: FACS on human KYSE-70 esophageal epithelial cell line.
The target in assay [2] is cynomolgus monkey CD147 on the cynomolgus primary kidney epithelial cell line (cynomolgus monkey). The experiment in a line: FACS on cynomolgus primary kidney epithelial cell line.

These are yes or no findings as the source states them, for the method shown. Binding can be weak; no strength is given.

B1: humanized anti-human CD147 monoclonal antibody hu 3A11 Lc1/Hc1 (antibody, V domains shown)
VH: EVQLVESGGGLVQPGGSLRLSCAASGFTFSNYWMDWVRQAPGKGLEWVGEIRLKSYNYATHYAASVKGRFTISRDDSKNSVYLQMNSLKTEDTAVYYCTAAGTDYWGQGTLVTVSS
VL: DIQMTQSPSSLSASVGDRVTITCRASQSVRTDVGWYQQKPGKAPKLLIYYSSNRYTGVPSRFSGSGSGTDFTLTISSLQPEDFATYYCQQDYSSPYTFGQGTKLEIK
With B1, the binding entry in assay [1] and in assay [2] was “binds” each time.
